In the supplement of paper PMC11348887:
Where “and” joins values, the source holds several entries; their conditions need not be identical. Identical values can stand only once. Some of the results follow. Small differences around the control level are noise.

tested on: hPSC-derived cortical neurons (WA09); assay: nucleus area z-score vs screen plate; higher = larger nuclei (more mature); conditions: 5 µM; treatment: days 7-14 after plating, readout day 21

SMILES | nucleus area z-score
N[C@H]1CC[C@H](N[C@@H]2C[C@H]2c2ccccc2)CC1 | 1.18
C=C1/C(=C\C=C2/CCC[C@]3(C)[C@@H]([C@H](C)CCCC(C)C)CC[C@@H]23)C[C@@H](O)C[C@@H]1O [Alfacalcidol] | 0.768
O=C(O)CCNc1cc(N2CCc3ccccc3CC2)nc(-c2ccccn2)n1 | -0.235
O=C(NOC[C@H](O)CO)c1ccc(F)c(F)c1Nc1ccc(I)cc1F | -0.359
CCC(C)SSc1ncc[nH]1 (stereo not drawn) | -0.375
COC(=O)N[C@H](C(=O)N1CC2(CC2)C[C@H]1c1nc(-c2ccc3c(c2)C(F)(F)c2cc(-c4ccc5[nH]c([C@@H]6[C@H]7CC[C@H](C7)N6C(=O)[C@@H](NC(=O)OC)C(C)C)nc5c4)ccc2-3)c[nH]1)C(C)C [Ledipasvir (GS5885)] | -1.2
CN1CCN(C(=O)c2cc3cc(Cl)ccc3[nH]2)CC1 | 0.0492
CC(C)(O)CNc1nc(Nc2ccnc(C(F)(F)F)c2)nc(-c2cccc(C(F)(F)F)n2)n1 [Enasidenib (AG-221)] | 0.233
CC(C)Cn1cnc2c(N)nc3ccccc3c21 [Imiquimod] | 0.395
O=C(NC1CCNCC1)c1n[nH]cc1NC(=O)c1c(Cl)cccc1Cl | -16.1 and -15.3
CCC/N=C1\S/C(=C\c2ccc(OC[C@H](O)CO)c(Cl)c2)C(=O)N1c1ccccc1C [Ponesimod] | 1.14
CCOC(=O)c1[nH]c2cc(Cl)ccc2c1C(C(=O)NC(C)(C)C)N(C=O)Cc1ccc(Cl)cc1 (stereo not drawn) | 0.527
Cc1cc(Nc2ccc(NC(=O)c3ccc(Nc4ccnc5ccccc45)cc3)cc2)nc(N)n1 | -12.1
